{"source": "patent EP0687685A1", "about": "(TEIJIN LIMITED, priority 1993, dated 1994)", "assay": "general procedure: Fmoc solid-phase peptide synthesis", "details": "whole synthesis", "data": [{"sequence": "A = Lys-Arg-Gly-Cys-Gly- B = -Ser-Cys W¹ = Thr, X = Lys, V¹ = Phe, Z = Leu, W² = Ser, Y¹ = Tyr, V² = Lys, Y² = Phe", "values": [{"measurement": "isolated yield", "value": 45, "unit": "%"}]}]}
